Data taken from paper PMC8201617.
Results are given in words; binding and its absence hold for the method and conditions named. In cells and extracts the contact can be indirect. Some results given as binding are weak or reduced against the parent protein; the word gives no strength.

Sequences of proteins named here, by UniProt entry; tags and fusion partners are left off. A change or cut given only in a name is not applied to a line headed by its entry. A line that says so, or that is headed by a name, gives the form on record, which may keep a tag or linker. Residues count along the entry.
UniProt P00519, residues 127-217: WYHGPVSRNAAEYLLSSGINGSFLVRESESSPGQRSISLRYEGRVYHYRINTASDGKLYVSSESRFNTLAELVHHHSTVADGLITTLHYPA
wild-type RUNX2 [RUNX2 (WT)] (Q13950-2, form named): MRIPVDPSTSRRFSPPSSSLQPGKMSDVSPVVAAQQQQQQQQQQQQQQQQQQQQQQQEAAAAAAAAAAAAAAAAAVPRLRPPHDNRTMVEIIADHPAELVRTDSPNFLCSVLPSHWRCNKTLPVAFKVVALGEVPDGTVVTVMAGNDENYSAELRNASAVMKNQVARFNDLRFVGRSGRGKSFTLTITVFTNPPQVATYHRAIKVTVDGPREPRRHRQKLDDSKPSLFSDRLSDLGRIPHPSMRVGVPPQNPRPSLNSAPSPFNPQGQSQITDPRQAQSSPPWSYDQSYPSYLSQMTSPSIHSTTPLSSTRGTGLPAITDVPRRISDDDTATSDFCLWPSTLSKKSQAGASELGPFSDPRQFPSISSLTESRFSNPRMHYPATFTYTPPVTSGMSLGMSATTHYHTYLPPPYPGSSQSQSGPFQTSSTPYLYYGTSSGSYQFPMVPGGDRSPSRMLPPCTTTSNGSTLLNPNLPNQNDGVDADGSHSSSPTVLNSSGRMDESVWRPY

Molecular target: GFP-ABL (SH2), truncated form of the ABL-SH2 domain (UniProt P00519)
Assay: co-IP; HEK293T cells co-transfected with RUNX2 with or without GFP-ABL (SH2); GFP-ABL (SH2) immune complexes probed with anti-RUNX2 or anti-GFP; NP-40 or RIPA lysis buffer, 4 °C, Dynabeads Protein A or G

binding: binds
Substance: wild-type RUNX2 [RUNX2 (WT)] (from UniProt Q13950-2 1-507)
